These are yes or no findings as the source states them, for the method shown. In cells and extracts the contact can be indirect. Some binding calls cover weakened binding; strength is not graded here.
Target: Brahma related gene 1 (Brg1) (mouse (endogenous in TS cells)) (UniProt Q3TKT4)
Assay: co-IP; about 2 mg TS cell lysate in lysis buffer (50 mM HEPES, 150 mM NaCl, 1 mM EDTA, 2.5 mM EGTA, 10% glycerol, 0.1% tween 20); Brg1 precipitated with Brg1 rabbit anti-serum overnight at 4°C, Protein-G agarose; Cdx2 detected by Western blot; rabbit IgG as control

Chains of the proteins cited; added tags and fusions are not shown.
UniProt Q3TKT4: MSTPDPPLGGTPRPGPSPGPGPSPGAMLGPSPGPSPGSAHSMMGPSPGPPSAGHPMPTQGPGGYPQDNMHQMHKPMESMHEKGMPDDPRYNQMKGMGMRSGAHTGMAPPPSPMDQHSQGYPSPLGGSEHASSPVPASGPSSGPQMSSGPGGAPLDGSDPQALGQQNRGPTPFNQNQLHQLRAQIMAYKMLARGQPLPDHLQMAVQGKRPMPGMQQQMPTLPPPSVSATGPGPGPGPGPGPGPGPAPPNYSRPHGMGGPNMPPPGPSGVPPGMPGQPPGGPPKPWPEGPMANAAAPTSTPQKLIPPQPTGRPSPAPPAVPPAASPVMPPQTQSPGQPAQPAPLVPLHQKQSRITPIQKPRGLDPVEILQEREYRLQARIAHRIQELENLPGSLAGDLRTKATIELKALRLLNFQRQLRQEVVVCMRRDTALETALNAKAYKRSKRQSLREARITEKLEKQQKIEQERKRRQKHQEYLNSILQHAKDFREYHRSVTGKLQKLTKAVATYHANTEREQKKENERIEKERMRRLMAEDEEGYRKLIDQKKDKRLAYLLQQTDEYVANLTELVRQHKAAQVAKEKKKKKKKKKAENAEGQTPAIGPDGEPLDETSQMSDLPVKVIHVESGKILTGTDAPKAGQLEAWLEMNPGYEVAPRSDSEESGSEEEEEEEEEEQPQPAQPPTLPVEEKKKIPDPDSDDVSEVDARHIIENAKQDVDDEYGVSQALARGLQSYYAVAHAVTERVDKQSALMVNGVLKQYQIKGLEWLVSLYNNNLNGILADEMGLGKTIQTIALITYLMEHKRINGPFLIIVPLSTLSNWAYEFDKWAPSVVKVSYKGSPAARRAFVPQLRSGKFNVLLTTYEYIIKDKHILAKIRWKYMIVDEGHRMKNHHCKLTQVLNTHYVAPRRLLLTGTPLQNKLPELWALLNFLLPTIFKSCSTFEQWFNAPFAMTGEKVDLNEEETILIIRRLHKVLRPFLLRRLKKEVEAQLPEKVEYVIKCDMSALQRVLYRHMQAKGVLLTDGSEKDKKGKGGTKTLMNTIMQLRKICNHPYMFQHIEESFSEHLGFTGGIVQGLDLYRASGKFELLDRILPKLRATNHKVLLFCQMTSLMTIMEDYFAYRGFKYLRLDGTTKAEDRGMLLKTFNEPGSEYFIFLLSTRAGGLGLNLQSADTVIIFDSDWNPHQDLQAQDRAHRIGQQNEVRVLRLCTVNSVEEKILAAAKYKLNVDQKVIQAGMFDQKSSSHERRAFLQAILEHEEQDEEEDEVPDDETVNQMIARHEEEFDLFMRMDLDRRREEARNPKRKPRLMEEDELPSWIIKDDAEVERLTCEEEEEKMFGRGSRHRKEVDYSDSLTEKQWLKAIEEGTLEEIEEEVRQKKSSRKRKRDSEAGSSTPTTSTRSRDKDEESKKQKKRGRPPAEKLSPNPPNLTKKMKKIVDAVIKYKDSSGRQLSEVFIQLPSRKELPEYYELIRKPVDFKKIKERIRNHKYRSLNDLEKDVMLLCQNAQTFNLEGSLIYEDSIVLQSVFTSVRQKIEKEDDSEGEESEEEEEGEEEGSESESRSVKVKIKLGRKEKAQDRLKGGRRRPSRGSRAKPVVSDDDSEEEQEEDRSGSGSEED

B1: Cdx2 (protein, UniProt P43241 1-311)
chain: MYVSYLLDKDVSMYPSSVRHSGGLNLAPQNFVSPPQYPDYGGYHVAAAAAATANLDSAQSPGPSWPTAYGAPLREDWNGYAPGGAAAANAVAHGLNGGSPAAAMGYSSPAEYHAHHHPHHHPHHPAASPSCASGLLQTLNLGPPGPAATAAAEQLSPSGQRRNLCEWMRKPAQQSLGSQVKTRTKDKYRVVYTDHQRLELEKEFHFSRYITIRRKSELAATLGLSERQVKIWFQNRRAKERKIKKKQQQQQQQQQQQPPQPPPQPSQPQPGALRSVPEPLSPVTSLQGSVPGSVPGVLGPAGGVLNSTVTQ
binding: binds

— article PMC2868905
